The assay deals with T1, GGLO1 (Gerbera hybrida) (UniProt Q9ZS26).
T1 sequence: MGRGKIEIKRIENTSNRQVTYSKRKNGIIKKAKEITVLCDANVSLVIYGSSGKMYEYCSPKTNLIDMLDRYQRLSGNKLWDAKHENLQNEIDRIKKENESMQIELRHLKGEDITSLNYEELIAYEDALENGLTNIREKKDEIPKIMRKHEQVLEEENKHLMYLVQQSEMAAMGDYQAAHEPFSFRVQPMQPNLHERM
As to the kind of experiment: two-hybrid; yeast two-hybrid; data not shown; bait and prey not stated.

These are yes or no findings as the source states them, for the method shown. Some binding calls cover weakened binding; strength is not graded here.

Data on two molecules can be found in publication PMC1525168.

B1: GDEF1 (protein, UniProt Q9ZS28 1-226)
chain: MGRGKIEIKKIENNTNRQVTYSKRRNGIFKKAHELTVLCDAKVSLIMFSNTGKFHEYISPSTTTKKMYDQYQSTVGFDLWSSHYERMKETMKKLKDTNNKLRREIRQRVLGEDFDGLDMNDLTSLEQHMQDSLTLVRERKYHVIKTQTDTCRKRVRNLEQRNGNLRLDYETIHQLDKKYDTGENEGDYESVVAYSNGVSNLYAFCVHPNNIPHGAGYELHDHQHTN
For the molecule B1, the binding entry was “binds”.

B2: GDEF2 (protein, UniProt Q9ZS27 1-228)
chain: MARGKIQIKKIENSTNRQVTYSKRRNGLFKKASELTVLCDAKVSIIMVSCTDKLHEYISPSITTKQFFDQYQKASGIDLWNSHYEKMQEELRQLKEVNRNLRRQIRQRLGDCLEDLGFEEFLDLEKESQEAVYIIRERKLKVIGNKLETSKKKVRSAQDVYKKLMHEFDIRGEDPQYGMIEDGVEYEALYGYPPHISAPRILTLRLQPNHPDNLHAAASDLTTYALLG
B2: the binding result was “binds”.
